# Source: PubChem BioAssay AID445 (National Center for Advancing Translational Sciences (NCATS), 2006)
# The list shows a part of the results. These are further read-outs of the screen, such as a control signal, another cell line or another target. No call is given for them. Compounds called inactive in the main read-out are mostly missing here. The note in brackets gives the kind of curve behind each potency; many fits are weak.
# Assay: IkB Signaling
# Details: ABC-DLBCL IkBa-CBG/CBR dual luciferase ratio (green luciferase fused to IkBa over red control in OCI-Ly3 lymphoma cells), 4 h
# Outline: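 In this assay, an IκBα–CBG68 fusion accumulates when IKK-driven degradation is blocked; native CBR normalizes for cell number. OCI-Ly3 cells were treated 4 h with compound and doxycycline, then green and red light read after Chroma-Glo addition.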
# [1] = measured here: control luc red channel unless noted
# [2] = measured here: IkB-luc green channel
# [3] = measured here: control luc red channel
smiles,measurement,setting,value
COc1cc(-c2noc(-c3ccc(NC4CCCC4)c([N+](=O)[O-])c3)n2)cc(OC)c1OC,AC50,[1],"3.98 µM [falling, partial curve]"
O=C(NCc1ccc(F)cc1)c1nnc(Cc2cccc(F)c2)o1,AC50,[1],"31.6 µM [falling, single point]"
CC(C)c1ccc(NC(=O)c2cnc3sc(N4CCCC4)nn3c2=O)cc1,AC50,[1],"3.16 µM [falling, full curve]"
COCCOC(=O)c1c(C)oc2ccc(OC(=O)c3ccc4c(c3)OCO4)cc12,AC50,[1],"15.8 µM [falling, partial curve]"
CCOC(=O)c1ccc(NC(=O)CC2C(=O)N(c3cccc(C)c3)C(=O)N2CCOC)cc1 (centres undefined),AC50,[1],"31.6 µM [falling, partial curve]"
COc1cc(NC(=O)CSc2nc3ccccc3c(=O)n2C)ccc1NC(=O)c1ccco1,AC50,[1],"10 µM [falling, partial curve]"
Cc1ccc(OCC(=O)Nc2nnc(SCc3cc(=O)n4cccc(C)c4n3)s2)cc1,AC50,[1],"2.51 µM [falling, full curve, poor fit]"
Cc1cc(C(=O)CSc2nnc(-c3cccs3)o2)c(C)n1-c1ccccc1,AC50,[1],"7.94 µM [falling, partial curve]"
O=C(Cn1c(=O)n(Cc2ccccc2)c(=O)c2sc3ccccc3c21)Nc1ccc(F)cc1,AC50,[1],"12.6 µM [falling, partial curve]"
COc1ccc(C(C(O)C(=O)c2c[nH]c3ccccc23)N2CCN(c3ccc(OC)cc3)CC2)cc1 (centres undefined),AC50,[1],"15.8 µM [falling, partial curve]"
CCCCN(CC)CCCNC(=O)c1cc2c(=O)oc3ccc(C)cc3c2s1,AC50,[1],"39.8 µM [falling, single point]"
Cc1nnc(NC(=O)CCC(=O)N2CCC(C)CC2)s1,AC50,[2],"20 µM [rising, partial curve]"
same,AC50,[3],"10 µM [falling, partial curve, poor fit]"
O=C(COc1ccc(Cl)cc1)NCC(c1cccs1)S(=O)(=O)c1ccc(F)cc1 (centres undefined),AC50,[2],"3.98 µM [rising, single point]"
same,AC50,[3],"10 µM [falling, single point]"
N#Cc1c(N)nc(SC2CCCCC2=O)c(C#N)c1-c1ccco1 (centres undefined),AC50,[1],"31.6 µM [falling, partial curve]"
N=C(N=C(N)N)N1CCOCC1,AC50,[1],"6.31 µM [falling, single point]"
Cc1nnc(NCc2ccccc2)c2c1nnn2Cc1ccc(F)cc1,AC50,[1],"0.0631 µM [rising, partial curve]"
CCc1cccc(NC(=O)Cn2nc(-c3cc(C)ccc3C)ccc2=O)c1,AC50,[1],"31.6 µM [falling, single point]"

# Part of the list above, with tabs.
smiles	measurement	setting	value
CC(C)c1ccc(NC(=O)c2cnc3sc(N4CCCC4)nn3c2=O)cc1	AC50	[1]	3.16 µM [falling, full curve]
COCCOC(=O)c1c(C)oc2ccc(OC(=O)c3ccc4c(c3)OCO4)cc12	AC50	[1]	15.8 µM [falling, partial curve]
